Results deposited as PubChem BioAssay AID1224830 (NIAID, 2016)
Here is a random part of about 18,000 reagents tested. Of all reagents, about 2,900 (16%) were called active. 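Calls are made per well; low scores hint the gene aids the LPS response, high scores that it dampens it.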 Entries without a mark were called inactive. Repeated entries: four replicate wells of each siRNA pool. No sequences are given here.

Aim: 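Host factors that control LPS-induced TNF expression in human macrophages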 (primary screen)
Cells: human THP-1 monocytic leukaemia cells, TNF dual-luciferase reporter clone, PMA-differentiated to macrophage-like cells
Reagent: siRNA pool against human genes, 50 nM
Timing: LPS for 4 h, given about 3 days after siRNA transfection
Conditions: bacterial LPS (TLR4 ligand), 10 ng/ml
Detection: 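Ratio of firefly to renilla light, scaled to the plate median and expressed as a robust z-score per replicate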
Scale: TNF reporter robust z-score: higher = stronger TNF reporter response to LPS
Rule for the call: 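Each well counts as active if its z-score is over 2.8 or under -1.5; controls are left without a call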

Gene	PubChem SID	TNF reporter robust z-score
MUSK	SID315450082	-1.09
MUSK	SID315450082	-0.93
MUSK	SID315450082	-0.75
MUSK	SID315450082	-1.29
PPAN-P2RY11	SID315465171	1.79
PPAN-P2RY11	SID315465171	2.76
PPAN-P2RY11	SID315465171	1.45
PPAN-P2RY11	SID315465171	0.24
NUDT21	SID315454561	0.59
NUDT21	SID315454561	2.3
NUDT21	SID315454561	1.14
NUDT21	SID315454561	0.25
ERMAP	SID315461226	-0.62
ERMAP	SID315461226	1.03
ERMAP	SID315461226	0.04
ERMAP	SID315461226	0.45
RTP1	SID315461911	0.56
RTP1	SID315461911	0.13
RTP1	SID315461911	1.5
RTP1	SID315461911	1.13
RDH10	SID315462622	-2 (active)
RDH10	SID315462622	-1.66 (active)
RDH10	SID315462622	-0.63
RDH10	SID315462622	-0.62
MARCKSL1	SID315459085	-0.87
MARCKSL1	SID315459085	-0.17
MARCKSL1	SID315459085	-0.55
MARCKSL1	SID315459085	-1.22
STAT5B	SID315451674	-0.46
STAT5B	SID315451674	0.08
STAT5B	SID315451674	-0.5
STAT5B	SID315451674	-0.44
KCTD18	SID315461864	1.59
KCTD18	SID315461864	0.33
KCTD18	SID315461864	-0.81
KCTD18	SID315461864	-0.44
BOLL	SID315459133	0.47
BOLL	SID315459133	0.7
BOLL	SID315459133	1.03
BOLL	SID315459133	1.95
ZNF385B	SID315462478	0.77
ZNF385B	SID315462478	1.62
ZNF385B	SID315462478	3.22 (active)
ZNF385B	SID315462478	2.91 (active)
MIOS	SID315457021	1.6
MIOS	SID315457021	1.57
MIOS	SID315457021	0.87
MIOS	SID315457021	-0.03
RFESD	SID315463931	2.71
RFESD	SID315463931	1.11
RFESD	SID315463931	3.98 (active)
RFESD	SID315463931	1.86
PACS1	SID315457774	-0.17
PACS1	SID315457774	-0.13
PACS1	SID315457774	-0.18
PACS1	SID315457774	-0.33
SPAG9	SID315452994	0.26
SPAG9	SID315452994	2.13
SPAG9	SID315452994	0.65
SPAG9	SID315452994	1.03
NUAK2	SID315459942	-0.19
NUAK2	SID315459942	0.37
NUAK2	SID315459942	4.18 (active)
NUAK2	SID315459942	1.57
ZNF45	SID315452221	-0.96
ZNF45	SID315452221	-0.94
ZNF45	SID315452221	-1.37
ZNF45	SID315452221	-1.44
LKAAEAR1	SID315462994	-1.77 (active)
LKAAEAR1	SID315462994	-1.74 (active)
LKAAEAR1	SID315462994	-2.14 (active)
LKAAEAR1	SID315462994	-1.86 (active)
GNRH2	SID315448962	-1.04
GNRH2	SID315448962	-1.4
GNRH2	SID315448962	-0.13
GNRH2	SID315448962	-1.22
PPP2R2C	SID315450755	0.15
PPP2R2C	SID315450755	0.25
PPP2R2C	SID315450755	1.68
PPP2R2C	SID315450755	0.71
ERGIC2	SID315456615	2.57
ERGIC2	SID315456615	1
ERGIC2	SID315456615	1.43
ERGIC2	SID315456615	1.08
GAB4	SID315461822	-0.69
GAB4	SID315461822	-0.92
GAB4	SID315461822	-0.54
GAB4	SID315461822	-0.65
SLC35E4	SID315464045	-0.16
SLC35E4	SID315464045	-0.38
SLC35E4	SID315464045	0.5
SLC35E4	SID315464045	1
RAVER1	SID315461666	-0.68
RAVER1	SID315461666	0.17
RAVER1	SID315461666	-0.12
RAVER1	SID315461666	-0.01
CSN3	SID315448131	-0.6
CSN3	SID315448131	-0.08
CSN3	SID315448131	-0.38
CSN3	SID315448131	0.1
OPRL1	SID315450363	0.06
OPRL1	SID315450363	0.29
OPRL1	SID315450363	0.82
OPRL1	SID315450363	0.08
TEX15	SID315458029	-0.66
TEX15	SID315458029	0.1
TEX15	SID315458029	-0.1
TEX15	SID315458029	-0.12
SGSM3	SID315456054	0.19
SGSM3	SID315456054	0.74
SGSM3	SID315456054	0.01
SGSM3	SID315456054	0.02

Reformatted: 16 of the entries above.
ZNF45 [SID315452221] | TNF reporter robust z-score = -1.37
ZNF45 [SID315452221] | TNF reporter robust z-score = -1.44
LKAAEAR1 [SID315462994] | TNF reporter robust z-score = -1.77 (active)
LKAAEAR1 [SID315462994] | TNF reporter robust z-score = -1.74 (active)
LKAAEAR1 [SID315462994] | TNF reporter robust z-score = -2.14 (active)
LKAAEAR1 [SID315462994] | TNF reporter robust z-score = -1.86 (active)
GNRH2 [SID315448962] | TNF reporter robust z-score = -1.04
GNRH2 [SID315448962] | TNF reporter robust z-score = -1.4
GNRH2 [SID315448962] | TNF reporter robust z-score = -0.13
GNRH2 [SID315448962] | TNF reporter robust z-score = -1.22
PPP2R2C [SID315450755] | TNF reporter robust z-score = 0.15
PPP2R2C [SID315450755] | TNF reporter robust z-score = 0.25
PPP2R2C [SID315450755] | TNF reporter robust z-score = 1.68
PPP2R2C [SID315450755] | TNF reporter robust z-score = 0.71
ERGIC2 [SID315456615] | TNF reporter robust z-score = 2.57
ERGIC2 [SID315456615] | TNF reporter robust z-score = 1
